Experimental data taken from US20120308570A1, “METHODS FOR TREATING DISEASES” (priority 2009, published 2012).
No constants are given. Whether binding was seen depends on the method and setting. Binding seen in cells or lysates may run through a third protein. Some binding calls cover weakened binding; strength is not graded here.

Sequences of proteins named here, by UniProt entry; tags and fusion partners are left off. A change or cut given only in a name is not applied to a line headed by its entry.
UniProt O88838: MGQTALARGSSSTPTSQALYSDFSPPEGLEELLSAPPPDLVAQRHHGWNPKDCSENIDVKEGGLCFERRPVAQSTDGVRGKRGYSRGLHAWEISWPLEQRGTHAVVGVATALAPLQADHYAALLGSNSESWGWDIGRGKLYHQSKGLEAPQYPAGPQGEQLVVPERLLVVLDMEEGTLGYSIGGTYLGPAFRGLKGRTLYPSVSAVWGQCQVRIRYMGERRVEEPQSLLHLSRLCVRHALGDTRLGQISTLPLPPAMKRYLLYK
UniProt Q8R5B6: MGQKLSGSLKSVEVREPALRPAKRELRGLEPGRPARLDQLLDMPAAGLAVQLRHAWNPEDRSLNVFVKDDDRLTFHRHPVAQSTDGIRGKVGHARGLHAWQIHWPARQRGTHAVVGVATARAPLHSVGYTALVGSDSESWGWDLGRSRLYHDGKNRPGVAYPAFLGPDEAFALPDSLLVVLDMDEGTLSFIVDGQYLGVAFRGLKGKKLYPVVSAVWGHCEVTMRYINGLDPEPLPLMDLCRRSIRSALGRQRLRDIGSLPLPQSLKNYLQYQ

Assays:
[1] = biological target: T1, full-length iNOS protein (endogenous, from LPS/IFNγ-treated mouse bone marrow-derived macrophages) (mouse) (UniProt P29477); assay: pull-down from BMDM lysate with SSB-2ΔSB coupled to Sepharose, anti-iNOS Western blot
T1 sequence: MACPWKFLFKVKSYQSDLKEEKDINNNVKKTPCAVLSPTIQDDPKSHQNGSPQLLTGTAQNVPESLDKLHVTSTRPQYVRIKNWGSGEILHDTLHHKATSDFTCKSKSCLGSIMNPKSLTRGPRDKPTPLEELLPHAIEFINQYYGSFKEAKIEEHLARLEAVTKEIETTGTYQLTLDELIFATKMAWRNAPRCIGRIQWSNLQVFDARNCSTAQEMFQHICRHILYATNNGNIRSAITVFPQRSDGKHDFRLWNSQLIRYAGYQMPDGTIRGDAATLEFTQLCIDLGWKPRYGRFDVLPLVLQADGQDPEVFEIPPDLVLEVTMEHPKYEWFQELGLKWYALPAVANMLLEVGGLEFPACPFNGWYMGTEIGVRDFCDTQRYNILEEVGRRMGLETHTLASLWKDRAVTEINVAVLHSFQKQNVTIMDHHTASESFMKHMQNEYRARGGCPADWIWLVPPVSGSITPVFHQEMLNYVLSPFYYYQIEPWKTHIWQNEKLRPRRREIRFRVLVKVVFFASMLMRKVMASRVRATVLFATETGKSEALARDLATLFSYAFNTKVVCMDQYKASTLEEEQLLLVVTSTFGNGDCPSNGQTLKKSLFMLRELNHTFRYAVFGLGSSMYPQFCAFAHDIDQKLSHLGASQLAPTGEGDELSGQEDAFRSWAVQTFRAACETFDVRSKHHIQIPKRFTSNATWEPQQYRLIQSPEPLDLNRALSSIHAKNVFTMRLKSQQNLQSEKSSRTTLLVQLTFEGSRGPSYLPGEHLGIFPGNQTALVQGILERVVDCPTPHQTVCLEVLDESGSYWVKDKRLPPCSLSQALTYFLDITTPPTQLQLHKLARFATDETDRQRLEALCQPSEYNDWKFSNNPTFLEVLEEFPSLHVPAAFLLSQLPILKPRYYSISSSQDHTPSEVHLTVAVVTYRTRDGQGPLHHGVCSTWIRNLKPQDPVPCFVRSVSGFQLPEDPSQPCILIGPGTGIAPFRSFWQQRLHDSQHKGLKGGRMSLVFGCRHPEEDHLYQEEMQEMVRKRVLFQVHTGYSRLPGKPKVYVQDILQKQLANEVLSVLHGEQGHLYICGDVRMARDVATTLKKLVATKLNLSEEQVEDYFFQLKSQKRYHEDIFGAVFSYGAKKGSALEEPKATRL

[2] = biological target: T1, full-length iNOS protein (endogenous, from LPS/IFNγ-treated mouse bone marrow-derived macrophages) (mouse); assay: pull-down from BMDM lysate, Western blot (FIG. 5A)
[3] = biological target: T1, full-length iNOS protein (endogenous, from LPS/IFNγ-treated mouse bone marrow-derived macrophages) (mouse); assay: anti-Flag co-immunoprecipitation, Western blot (FIG. 6A)
[4] = biological target: T1, full-length iNOS protein (endogenous, from LPS/IFNγ-treated mouse bone marrow-derived macrophages) (mouse); assay: anti-Flag co-immunoprecipitation from mixed 293T and BMDM lysates, anti-iNOS Western blot
[5] = biological target: T1, full-length iNOS protein (endogenous, from LPS/IFNγ-treated mouse bone marrow-derived macrophages) (mouse); assay: anti-Flag co-immunoprecipitation, anti-iNOS Western blot

Row | Substance | binding [3] | binding [4] | binding [5] | also measured
1 | SSB-2ΔSB (recombinant murine SSB-2 SPRY domain, residues 12-224) (from UniProt O88838 12-224) |  |  |  | binding [1]: binds; binding [2]: binds
2 | Flag-tagged SSB-2 (murine, wild-type, expressed in 293T cells) (from UniProt O88838 1-264) | binds | binds |  | 
3 | Flag-tagged SSB-2 mutant Q160/L161 (from UniProt O88838 1-264) |  |  | binds | 
4 | Flag-tagged SSB-2 mutant D118/H119 (from UniProt O88838 1-264) |  |  | binds | 
5 | Flag-tagged SSB-4 (murine, expressed in 293T cells) (from UniProt Q8R5B6 1-273) | binds | binds |  | 
